The source of these data is article PMC5207133.

The chains behind the UniProt entries cited, without tags or fusion partners. Residues count along the entry.
UniProt P78527: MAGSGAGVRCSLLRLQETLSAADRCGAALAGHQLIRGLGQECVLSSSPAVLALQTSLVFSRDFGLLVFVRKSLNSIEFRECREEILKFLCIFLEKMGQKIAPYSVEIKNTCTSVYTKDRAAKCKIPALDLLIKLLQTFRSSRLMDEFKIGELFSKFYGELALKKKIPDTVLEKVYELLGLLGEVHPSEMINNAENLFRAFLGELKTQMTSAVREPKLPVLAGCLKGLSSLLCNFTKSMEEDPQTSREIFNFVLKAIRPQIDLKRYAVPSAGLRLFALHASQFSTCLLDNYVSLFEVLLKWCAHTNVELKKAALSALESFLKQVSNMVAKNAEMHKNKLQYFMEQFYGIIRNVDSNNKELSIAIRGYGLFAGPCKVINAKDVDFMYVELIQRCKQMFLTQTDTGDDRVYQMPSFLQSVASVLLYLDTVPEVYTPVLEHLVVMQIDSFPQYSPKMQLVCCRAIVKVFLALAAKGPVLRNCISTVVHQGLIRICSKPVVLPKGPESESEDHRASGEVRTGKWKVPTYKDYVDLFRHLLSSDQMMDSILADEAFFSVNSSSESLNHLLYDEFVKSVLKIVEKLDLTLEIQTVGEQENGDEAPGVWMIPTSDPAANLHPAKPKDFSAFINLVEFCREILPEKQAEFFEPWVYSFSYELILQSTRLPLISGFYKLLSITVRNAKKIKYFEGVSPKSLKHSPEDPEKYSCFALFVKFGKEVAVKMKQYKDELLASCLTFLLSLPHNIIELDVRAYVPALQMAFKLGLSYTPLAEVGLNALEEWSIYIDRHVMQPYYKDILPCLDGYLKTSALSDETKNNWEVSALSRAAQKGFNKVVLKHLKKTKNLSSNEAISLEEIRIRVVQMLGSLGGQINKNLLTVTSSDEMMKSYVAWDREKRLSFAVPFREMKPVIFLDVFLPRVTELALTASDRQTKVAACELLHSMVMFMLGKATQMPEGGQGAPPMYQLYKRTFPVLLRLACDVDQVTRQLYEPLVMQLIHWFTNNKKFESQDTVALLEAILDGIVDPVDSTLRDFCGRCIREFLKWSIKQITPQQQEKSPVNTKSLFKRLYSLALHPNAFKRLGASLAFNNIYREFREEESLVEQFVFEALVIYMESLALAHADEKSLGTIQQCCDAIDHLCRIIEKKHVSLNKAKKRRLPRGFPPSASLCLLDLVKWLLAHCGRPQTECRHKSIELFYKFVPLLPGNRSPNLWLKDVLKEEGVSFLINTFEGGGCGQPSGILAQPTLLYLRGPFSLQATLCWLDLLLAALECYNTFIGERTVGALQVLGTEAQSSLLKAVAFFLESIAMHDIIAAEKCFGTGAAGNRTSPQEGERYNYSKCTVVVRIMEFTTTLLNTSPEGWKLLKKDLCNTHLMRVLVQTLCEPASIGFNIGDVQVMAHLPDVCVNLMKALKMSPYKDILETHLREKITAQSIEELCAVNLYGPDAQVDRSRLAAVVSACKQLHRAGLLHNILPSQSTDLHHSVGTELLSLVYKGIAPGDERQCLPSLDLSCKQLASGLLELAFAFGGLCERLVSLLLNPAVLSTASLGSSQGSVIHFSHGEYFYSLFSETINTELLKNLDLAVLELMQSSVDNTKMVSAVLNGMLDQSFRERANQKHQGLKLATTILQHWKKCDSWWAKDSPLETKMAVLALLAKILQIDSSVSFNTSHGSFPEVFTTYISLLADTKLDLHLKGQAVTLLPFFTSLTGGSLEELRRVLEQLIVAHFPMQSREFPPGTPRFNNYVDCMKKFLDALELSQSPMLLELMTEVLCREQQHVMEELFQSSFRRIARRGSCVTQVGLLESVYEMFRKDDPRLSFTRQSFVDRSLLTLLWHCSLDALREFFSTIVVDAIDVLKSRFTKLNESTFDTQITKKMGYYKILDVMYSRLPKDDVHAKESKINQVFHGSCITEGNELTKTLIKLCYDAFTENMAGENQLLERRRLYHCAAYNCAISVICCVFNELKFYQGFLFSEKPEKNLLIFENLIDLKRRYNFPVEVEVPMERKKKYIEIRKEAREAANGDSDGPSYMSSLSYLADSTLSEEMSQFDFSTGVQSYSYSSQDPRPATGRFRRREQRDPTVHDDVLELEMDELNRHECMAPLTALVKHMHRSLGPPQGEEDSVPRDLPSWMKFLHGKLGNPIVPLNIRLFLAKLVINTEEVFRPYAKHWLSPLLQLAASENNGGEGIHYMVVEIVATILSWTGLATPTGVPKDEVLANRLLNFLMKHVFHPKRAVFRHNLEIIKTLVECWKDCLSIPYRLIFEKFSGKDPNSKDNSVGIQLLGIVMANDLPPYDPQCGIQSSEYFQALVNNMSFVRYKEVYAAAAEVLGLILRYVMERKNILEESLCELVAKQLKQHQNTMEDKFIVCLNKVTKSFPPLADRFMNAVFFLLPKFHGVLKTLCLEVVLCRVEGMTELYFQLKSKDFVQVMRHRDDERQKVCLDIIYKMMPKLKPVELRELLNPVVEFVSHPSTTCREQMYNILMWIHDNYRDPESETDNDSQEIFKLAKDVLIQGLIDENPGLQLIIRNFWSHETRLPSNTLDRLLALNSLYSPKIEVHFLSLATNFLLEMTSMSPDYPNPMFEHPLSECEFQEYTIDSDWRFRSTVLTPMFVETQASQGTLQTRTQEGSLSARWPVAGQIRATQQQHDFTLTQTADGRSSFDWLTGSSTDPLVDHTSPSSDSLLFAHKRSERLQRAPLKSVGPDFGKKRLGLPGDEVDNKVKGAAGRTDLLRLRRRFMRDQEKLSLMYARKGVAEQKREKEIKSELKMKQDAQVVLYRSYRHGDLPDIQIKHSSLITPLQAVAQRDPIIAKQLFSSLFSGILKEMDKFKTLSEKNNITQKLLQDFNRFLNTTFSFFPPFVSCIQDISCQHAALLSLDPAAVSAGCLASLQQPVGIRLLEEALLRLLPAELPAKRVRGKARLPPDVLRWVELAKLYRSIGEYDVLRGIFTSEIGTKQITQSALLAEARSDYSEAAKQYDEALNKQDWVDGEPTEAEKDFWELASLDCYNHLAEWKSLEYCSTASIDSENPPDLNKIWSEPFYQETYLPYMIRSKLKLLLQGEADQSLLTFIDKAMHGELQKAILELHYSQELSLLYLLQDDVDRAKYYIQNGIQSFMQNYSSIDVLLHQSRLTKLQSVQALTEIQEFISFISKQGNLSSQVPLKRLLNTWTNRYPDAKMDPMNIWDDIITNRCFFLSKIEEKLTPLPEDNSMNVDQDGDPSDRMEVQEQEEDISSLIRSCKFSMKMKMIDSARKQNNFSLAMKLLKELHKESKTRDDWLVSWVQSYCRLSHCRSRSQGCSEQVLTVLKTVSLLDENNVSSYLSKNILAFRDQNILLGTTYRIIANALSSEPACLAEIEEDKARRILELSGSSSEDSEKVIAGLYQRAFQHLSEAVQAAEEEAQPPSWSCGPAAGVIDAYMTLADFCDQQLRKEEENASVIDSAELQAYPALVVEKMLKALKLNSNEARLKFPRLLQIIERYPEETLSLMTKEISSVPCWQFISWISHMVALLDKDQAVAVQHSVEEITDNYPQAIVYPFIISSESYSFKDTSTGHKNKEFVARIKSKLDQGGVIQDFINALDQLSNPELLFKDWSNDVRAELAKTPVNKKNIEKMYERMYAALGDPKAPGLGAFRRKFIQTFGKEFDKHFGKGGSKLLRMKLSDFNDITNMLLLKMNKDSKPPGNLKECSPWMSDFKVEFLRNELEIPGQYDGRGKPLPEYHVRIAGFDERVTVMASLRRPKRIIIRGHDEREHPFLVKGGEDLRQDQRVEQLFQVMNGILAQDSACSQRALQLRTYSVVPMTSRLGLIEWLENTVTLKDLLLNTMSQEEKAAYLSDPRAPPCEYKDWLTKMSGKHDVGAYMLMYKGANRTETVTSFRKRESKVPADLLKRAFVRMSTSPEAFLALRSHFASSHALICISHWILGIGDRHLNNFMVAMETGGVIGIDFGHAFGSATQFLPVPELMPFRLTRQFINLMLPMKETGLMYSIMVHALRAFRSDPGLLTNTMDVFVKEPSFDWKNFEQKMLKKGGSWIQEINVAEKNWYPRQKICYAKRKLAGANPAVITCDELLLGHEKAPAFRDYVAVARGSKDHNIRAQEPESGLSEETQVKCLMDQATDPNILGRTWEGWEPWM
UniProt P02769, residues 25-607: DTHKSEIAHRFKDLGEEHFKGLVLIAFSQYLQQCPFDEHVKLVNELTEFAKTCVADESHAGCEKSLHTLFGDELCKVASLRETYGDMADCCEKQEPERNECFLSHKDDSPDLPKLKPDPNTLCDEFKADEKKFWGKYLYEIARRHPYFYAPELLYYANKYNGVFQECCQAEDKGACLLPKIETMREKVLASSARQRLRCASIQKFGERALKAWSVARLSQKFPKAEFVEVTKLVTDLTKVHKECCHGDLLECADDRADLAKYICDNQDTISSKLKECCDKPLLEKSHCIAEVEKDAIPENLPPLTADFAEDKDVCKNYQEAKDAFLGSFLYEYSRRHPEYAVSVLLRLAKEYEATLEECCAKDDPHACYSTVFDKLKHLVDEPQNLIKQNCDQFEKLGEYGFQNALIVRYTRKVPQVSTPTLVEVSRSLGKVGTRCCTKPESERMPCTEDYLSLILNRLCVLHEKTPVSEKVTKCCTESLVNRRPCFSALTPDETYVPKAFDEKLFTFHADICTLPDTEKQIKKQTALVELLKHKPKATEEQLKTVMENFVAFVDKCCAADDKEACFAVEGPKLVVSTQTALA

No constants are given. Whether binding was seen depends on the method and setting. For part of these data: Sequences can lack the tags named with a protein.

Assay [1] addresses T1, GST-APLF R182E/K183E/R184E (human) (UniProt Q8IW19).
T1 sequence: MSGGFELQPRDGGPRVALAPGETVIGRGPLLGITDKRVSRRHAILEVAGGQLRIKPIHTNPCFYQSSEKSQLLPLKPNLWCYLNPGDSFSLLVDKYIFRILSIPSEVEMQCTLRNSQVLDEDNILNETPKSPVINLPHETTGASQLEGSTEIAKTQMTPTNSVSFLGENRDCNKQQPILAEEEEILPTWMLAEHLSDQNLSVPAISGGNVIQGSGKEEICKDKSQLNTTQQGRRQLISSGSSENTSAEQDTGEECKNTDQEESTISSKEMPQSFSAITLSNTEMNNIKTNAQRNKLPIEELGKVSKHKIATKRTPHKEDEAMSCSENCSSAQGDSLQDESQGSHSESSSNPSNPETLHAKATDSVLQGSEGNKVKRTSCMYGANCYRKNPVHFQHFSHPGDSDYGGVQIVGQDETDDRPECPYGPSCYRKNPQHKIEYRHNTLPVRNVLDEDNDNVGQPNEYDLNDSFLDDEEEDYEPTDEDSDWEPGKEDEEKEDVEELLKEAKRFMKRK

A further assay concerns the target GST-APLF W189G (human) (UniProt Q8IW19).
Assay [2] addresses DNA-dependent protein kinase catalytic subunit (DNA-PKcs) (human (endogenous in HeLa)) (UniProt P78527).

Turning to “DNA-dependent protein kinase catalytic subunit (DNA-PKcs) (from UniProt P78527 1-4128) (enzyme)”, the binding result (in assay [1]; with GST-APLF W189G (human)) was “no binding” in each case.

For BSA (from UniProt P02769 25-607), the binding result in assay [2] is “no binding (tested: 6, 12, or 24 pmol of BSA)”.
